Source: paper PMC4191077
Results are given in words; binding and its absence hold for the method and conditions named. Some binding calls cover weakened binding; strength is not graded here. Where a sequence is shown, tags or fusion partners need not be part of it.

Protein sequences, listed by entry. Tags and fused reporters are not part of them. Lines headed by an entry give the natural chain unless they say otherwise; changes in a name come on top.
UniProt P60529: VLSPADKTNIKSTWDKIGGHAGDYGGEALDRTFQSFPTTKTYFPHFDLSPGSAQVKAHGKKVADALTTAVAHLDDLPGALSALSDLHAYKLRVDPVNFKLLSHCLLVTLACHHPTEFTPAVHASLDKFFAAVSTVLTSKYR

Target: T1, Endogenous dog haptoglobin (glucocorticoid enhanced, in Beagle plasma) (dog (endogenous in Beagle plasma)) (UniProt P19006)
T1 sequence 1: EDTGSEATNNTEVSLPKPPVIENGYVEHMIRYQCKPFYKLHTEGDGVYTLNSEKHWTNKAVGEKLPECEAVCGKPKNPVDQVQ
T1 sequence 2: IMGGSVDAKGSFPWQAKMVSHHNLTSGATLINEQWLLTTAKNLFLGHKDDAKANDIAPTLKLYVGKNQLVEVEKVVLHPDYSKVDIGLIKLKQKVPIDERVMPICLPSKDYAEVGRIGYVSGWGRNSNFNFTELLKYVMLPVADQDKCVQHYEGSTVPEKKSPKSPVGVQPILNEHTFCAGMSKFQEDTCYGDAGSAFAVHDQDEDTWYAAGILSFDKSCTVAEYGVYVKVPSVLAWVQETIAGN
Assay: SEC; plasma (50 uL) of prednisone pre-treated Beagle dogs after a 4 g i.v. bolus of purified Hb; Hb bound to endogenous dog Hp in vivo; BioSep-SEC-S3000, peak areas of Hb and Hb:Hp at 405 nm; only the binder purified

Dog hemoglobin (from UniProt P60529 1-141; P60524 1-146)
binding: binds
